Experimental data: PubChem BioAssay AID1259308 (NCATS, 2017)
Test: 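Knock-downs that increase output of a recombinant reporter protein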 (primary screen). Cells: human HEK293 embryonic kidney cells stably expressing firefly luciferase (HEK-CMV-Luc2-Hygro). Reagents: single siRNA against human genes, 0.8 pmol siRNA per well. Duration: 72 h. Measurement: 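Reporter luminescence and viable-cell signal on separate replicate plates, given as percent of non-targeting control and median/MAD z-scores, plus per-cell luciferase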. Reading the numbers: total luciferase, z-score and total luciferase, % of control: higher = more reporter protein produced. Hit rule: 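An siRNA counts as active if its total luciferase robust z-score exceeds 3; genes with two or more such siRNAs out of three were retested with fresh siRNAs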. Meaning of the calls: active = raised luciferase; inactive = no rise.
Here is a random part of about 59,000 reagents. About 1,510 of all reagents (2.6%) count as active. 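Calls use total luciferase alone and ignore viability, so some active siRNAs may act by altering cell number.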 Unmarked entries are inactive. The numbers tell different reagents against one gene apart. Further read-outs or replicates are left out here.

| gene | siRNA no. | total luciferase, z-score | total luciferase, % of control |
| --- | --- | --- | --- |
| TRIM58 (GeneID 25893) | 1 | 0.832 | 98.4 |
| TRIM58 (GeneID 25893) | 2 | -0.366 | 74.6 |
| TRIM58 (GeneID 25893) | 3 | -2.55 | 31.3 |
| GATAD2B (GeneID 57459) | 1 | 0.101 | 83.9 |
| GATAD2B (GeneID 57459) | 2 | -0.846 | 65.1 |
| GATAD2B (GeneID 57459) | 3 | -1.99 | 42.4 |
| FAM3A (GeneID 60343) | 1 | -0.306 | 75.8 |
| FAM3A (GeneID 60343) | 2 | -0.734 | 67.3 |
| FAM3A (GeneID 60343) | 3 | 0.178 | 85.4 |
| TRPV6 (GeneID 55503) | 1 | 2.14 | 124 |
| TRPV6 (GeneID 55503) | 2 | 0.566 | 93.1 |
| TRPV6 (GeneID 55503) | 3 | 1.74 | 117 |
| IGFN1 (GeneID 91156) | 1 | -1.22 | 57.7 |
| IGFN1 (GeneID 91156) | 2 | -0.502 | 71.9 |
| IGFN1 (GeneID 91156) | 3 | -1.39 | 54.3 |
| AIDA (GeneID 64853) | 1 | -0.576 | 70.4 |
| AIDA (GeneID 64853) | 2 | 0.699 | 95.8 |
| AIDA (GeneID 64853) | 3 | -0.232 | 77.3 |
| ARG1 (GeneID 383) | 1 | 0.85 | 98.8 |
| ARG1 (GeneID 383) | 2 | 0.794 | 97.7 |
| ARG1 (GeneID 383) | 3 | -1.56 | 50.8 |
| SHD (GeneID 56961) | 1 | 0.153 | 84.9 |
| SHD (GeneID 56961) | 2 | -0.502 | 71.9 |
| SHD (GeneID 56961) | 3 | 0.668 | 95.2 |
| COQ8A (GeneID 56997) | 1 | -0.146 | 79 |
| COQ8A (GeneID 56997) | 2 | 0.805 | 97.9 |
| COQ8A (GeneID 56997) | 3 | 2.63 | 134 |
| SOX9 (GeneID 6662) | 1 | -0.946 | 63.1 |
| SOX9 (GeneID 6662) | 2 | -0.49 | 72.1 |
| SOX9 (GeneID 6662) | 3 | 0.755 | 96.9 |
| ZKSCAN8P1 (GeneID 651302) | 1 | -1.66 | 48.9 |
| ZKSCAN8P1 (GeneID 651302) | 2 | -0.302 | 75.9 |
| ZKSCAN8P1 (GeneID 651302) | 3 | -1.12 | 59.7 |
| SH3BGRL2 (GeneID 83699) | 1 | -1.03 | 61.4 |
| SH3BGRL2 (GeneID 83699) | 2 | -0.223 | 77.4 |
| SH3BGRL2 (GeneID 83699) | 3 | -0.0597 | 80.7 |
| CDC14B (GeneID 8555) | 1 | 0.242 | 86.7 |
| CDC14B (GeneID 8555) | 2 | -0.219 | 77.5 |
| CDC14B (GeneID 8555) | 3 | -0.0458 | 81 |
| MED10 (GeneID 84246) | 1 | -1.38 | 54.4 |
| MED10 (GeneID 84246) | 2 | -0.593 | 70.1 |
| MED10 (GeneID 84246) | 3 | -0.726 | 67.4 |

Next part (9 carried over from the part before).
| gene | siRNA no. | total luciferase, z-score | total luciferase, % of control |
| --- | --- | --- | --- |
| SH3BGRL2 (GeneID 83699) | 1 | -1.03 | 61.4 |
| SH3BGRL2 (GeneID 83699) | 2 | -0.223 | 77.4 |
| SH3BGRL2 (GeneID 83699) | 3 | -0.0597 | 80.7 |
| CDC14B (GeneID 8555) | 1 | 0.242 | 86.7 |
| CDC14B (GeneID 8555) | 2 | -0.219 | 77.5 |
| CDC14B (GeneID 8555) | 3 | -0.0458 | 81 |
| MED10 (GeneID 84246) | 1 | -1.38 | 54.4 |
| MED10 (GeneID 84246) | 2 | -0.593 | 70.1 |
| MED10 (GeneID 84246) | 3 | -0.726 | 67.4 |
| LRFN2 (GeneID 57497) | 1 | 0.205 | 86 |
| LRFN2 (GeneID 57497) | 2 | 0.554 | 92.9 |
| LRFN2 (GeneID 57497) | 3 | -1.04 | 61.2 |
| FAHD2B (GeneID 151313) | 1 | -0.66 | 68.8 |
| FAHD2B (GeneID 151313) | 2 | 2.02 | 122 |
| FAHD2B (GeneID 151313) | 3 | -1.02 | 61.5 |
| PSAP (GeneID 5660) | 1 | -1.15 | 59 |
| PSAP (GeneID 5660) | 2 | -0.417 | 73.6 |
| PSAP (GeneID 5660) | 3 | -1.38 | 54.4 |
| PPA1 (GeneID 5464) | 1 | -0.359 | 74.7 |
| PPA1 (GeneID 5464) | 2 | -0.502 | 71.9 |
| PPA1 (GeneID 5464) | 3 | 0.357 | 89 |
| SLC38A12 (GeneID 54868) | 1 | -0.684 | 68.3 |
| SLC38A12 (GeneID 54868) | 2 | 0.677 | 95.3 |
| SLC38A12 (GeneID 54868) | 3 | -0.776 | 66.5 |
| MT1XP1 (GeneID 645652) | 1 | 1.81 | 118 |
| MT1XP1 (GeneID 645652) | 2 | 2.59 | 133 |
| MT1XP1 (GeneID 645652) | 3 | -0.372 | 74.5 |
| GCH1 (GeneID 2643) | 1 | 0.337 | 88.6 |
| GCH1 (GeneID 2643) | 2 | -0.903 | 63.9 |
| GCH1 (GeneID 2643) | 3 | -0.934 | 63.3 |
| EPHB1 (GeneID 2047) | 1 | -1.21 | 57.8 |
| EPHB1 (GeneID 2047) | 2 | 0.559 | 93 |
| EPHB1 (GeneID 2047) | 3 | 1.55 | 113 |
| HAPLN3 (GeneID 145864) | 1 | -3.31 | 16.1 |
| HAPLN3 (GeneID 145864) | 2 | -0.606 | 69.8 |
| HAPLN3 (GeneID 145864) | 3 | -0.123 | 79.4 |
| ACKR5 (GeneID 11318) | 1 | -0.571 | 70.5 |
| ACKR5 (GeneID 11318) | 2 | -0.659 | 68.8 |
| ACKR5 (GeneID 11318) | 3 | -1.88 | 44.4 |
| DDX4 (GeneID 54514) | 1 | -0.581 | 70.3 |
| DDX4 (GeneID 54514) | 2 | -0.267 | 76.6 |
| DDX4 (GeneID 54514) | 3 | -0.294 | 76 |
